Test results as given in PMC7255042.
Results are given in words; binding and its absence hold for the method and conditions named. In cells and extracts the contact can be indirect.

Target: Notch intracellular domain
Experiment: co-IP; coimmunoprecipitation assay; cells, antibodies and conditions not told in the main text (Figure S4C)

binding: no binding
B1: AT-rich interaction domain-containing protein 3B (protein, UniProt Q8IVW6 1-561)
chain: MEPLQQQQQQQQQQQKQPHLAPLQMDAREKQGQQMREAQFLYAQKLVTQPTLLSATAGRPSGSTPLGPLARVPPTAAVAQVFERGNMNSEPEEEDGGLEDEDGDDEVAEVAEKETQAASKYFHVQKVARQDPRVAPMSNLLPAPGLPPHGQQAKEDHTKDASKASPSVSTAGQPNWNLDEQLKQNGGLAWSDDADGGRGREISRDFAKLYELDGDPERKEFLDDLFVFMQKRGTPINRIPIMAKQILDLYMLYKLVTEKGGLVEIINKKIWREITKGLNLPTSITSAAFTLRTQYMKYLYAYECEKKALSSPAELQAAIDGNRREGRRPSYSSSLFGYSPAAATAAAAAGAPALLSPPKIRFPILGLGSSSGTNTSSPRISPATTLRKGDGAPVTTVPVPNRLAVPVTLASQQAGTRTAALEQLRERLESGEPAEKKASRLSEEEQRLVQQAFQRNFFSMARQLPMKIRINGRAEDRAEASAAALNLTTSSIGSINMSVDIDGTTYAGVLFAQKPVVHLITGSAPQSLGSSASSSSSSHCSPSPTSSRGTPSAEPSTSWSL
